Assay results: PMC8605320
No constants are given. Whether binding was seen depends on the method and setting. In cells and extracts the contact can be indirect. A yes stands for co-enrichment or nearness to the bait. Other partners may have been found. Sequences can lack the tags named with a protein.

T1: SPTLC2^FLAG (WT-SPTLC2 with C-terminal 3xFLAG), in Flp-In T-REx 293 SPTLC2-KO cells (human) (UniProt O15270)
T1 sequence: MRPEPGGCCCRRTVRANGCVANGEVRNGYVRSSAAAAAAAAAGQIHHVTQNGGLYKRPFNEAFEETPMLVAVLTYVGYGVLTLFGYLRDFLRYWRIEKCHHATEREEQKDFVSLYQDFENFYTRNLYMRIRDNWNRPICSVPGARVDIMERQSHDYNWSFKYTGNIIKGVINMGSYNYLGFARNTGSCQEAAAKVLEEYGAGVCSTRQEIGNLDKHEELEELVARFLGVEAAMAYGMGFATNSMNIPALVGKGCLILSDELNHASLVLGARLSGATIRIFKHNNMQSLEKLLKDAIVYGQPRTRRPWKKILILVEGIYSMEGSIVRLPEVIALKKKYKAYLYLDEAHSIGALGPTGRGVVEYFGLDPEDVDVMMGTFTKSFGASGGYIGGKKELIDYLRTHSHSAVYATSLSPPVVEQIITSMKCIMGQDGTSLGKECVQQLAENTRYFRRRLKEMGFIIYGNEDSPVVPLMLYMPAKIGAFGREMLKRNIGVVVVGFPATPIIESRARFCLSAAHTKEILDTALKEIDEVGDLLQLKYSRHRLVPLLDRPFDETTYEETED

B1: TOMM40 (protein, UniProt O96008 1-361)
chain: MGNVLAASSPPAGPPPPPAPALVGLPPPPPSPPGFTLPPLGGSLGAGTSTSRSSERTPGAATASASGAAEDGACGCLPNPGTFEECHRKCKELFPIQMEGVKLTVNKGLSNHFQVNHTVALSTIGESNYHFGVTYVGTKQLSPTEAFPVLVGDMDNSGSLNAQVIHQLGPGLRSKMAIQTQQSKFVNWQVDGEYRGSDFTAAVTLGNPDVLVGSGILVAHYLQSITPCLALGGELVYHRRPGEEGTVMSLAGKYTLNNWLATVTLGQAGMHATYYHKASDQLQVGVEFEASTRMQDTSVSFGYQLDLPKANLLFKGSVDSNWIVGATLEKKLPPLPLTLALGAFLNHRKNKFQCGFGLTIG
B2: GK (protein, UniProt P32189 1-559)
chain: MAASKKAVLGPLVGAVDQGTSSTRFLVFNSKTAELLSHHQVEIKQEFPREGWVEQDPKEILHSVYECIEKTCEKLGQLNIDISNIKAIGVSNQRETTVVWDKITGEPLYNAVVWLDLRTQSTVESLSKRIPGNNNFVKSKTGLPLSTYFSAVKLRWLLDNVRKVQKAVEEKRALFGTIDSWLIWSLTGGVNGGVHCTDVTNASRTMLFNIHSLEWDKQLCEFFGIPMEILPNVRSSSEIYGLMKISHSVKAGALEGVPISGCLGDQSAALVGQMCFQIGQAKNTYGTGCFLLCNTGHKCVFSDHGLLTTVAYKLGRDKPVYYALEGSVAIAGAVIRWLRDNLGIIKTSEEIEKLAKEVGTSYGCYFVPAFSGLYAPYWEPSARGIICGLTQFTNKCHIAFAALEAVCFQTREILDAMNRDCGIPLSHLQVDGGMTSNKILMQLQADILYIPVVKPSMPETTALGAAMAAGAAEGVGVWSLEPEDLSAVTMERFEPQINAEESEIRYSTWKKAVMKSMGWVTTQSPESGDPSIFCSLPLGFFIVSSMVMLIGARYISGIP
B3: ORMDL3 (protein, UniProt Q8N138 1-153)
chain: MNVGTAHSEVNPNTRVMNSRGIWLSYVLAIGLLHIVLLSIPFVSVPVVWTLTNLIHNMGMYIFLHTVKGTPFETPDQGKARLLTHWEQMDYGVQFTASRKFLTITPIVLYFLTSFYTKYDQIHFVLNTVSLMSVLIPKLPQLHGVRIFGINKY
B4: ORMDL1 (protein, UniProt Q9P0S3 1-153)
chain: MNVGVAHSEVNPNTRVMNSRGMWLTYALGVGLLHIVLLSIPFFSVPVAWTLTNIIHNLGMYVFLHAVKGTPFETPDQGKARLLTHWEQLDYGVQFTSSRKFFTISPIILYFLASFYTKYDPTHFILNTASLLSVLIPKMPQLHGVRIFGINKY
B5: ORMDL2 (protein, UniProt Q53FV1 1-153)
chain: MNVGVAHSEVNPNTRVMNSRGIWLAYIILVGLLHMVLLSIPFFSIPVVWTLTNVIHNLATYVFLHTVKGTPFETPDQGKARLLTHWEQMDYGLQFTSSRKFLSISPIVLYLLASFYTKYDAAHFLINTASLLSVLLPKLPQFHGVRVFGINKY
B6: ESYT1 (protein, UniProt Q9BSJ8 1-1104)
chain: MERSPGEGPSPSPMDQPSAPSDPTDQPPAAHAKPDPGSGGQPAGPGAAGEALAVLTSFGRRLLVLIPVYLAGAVGLSVGFVLFGLALYLGWRRVRDEKERSLRAARQLLDDEEQLTAKTLYMSHRELPAWVSFPDVEKAEWLNKIVAQVWPFLGQYMEKLLAETVAPAVRGSNPHLQTFTFTRVELGEKPLRIIGVKVHPGQRKEQILLDLNISYVGDVQIDVEVKKYFCKAGVKGMQLHGVLRVILEPLIGDLPFVGAVSMFFIRRPTLDINWTGMTNLLDIPGLSSLSDTMIMDSIAAFLVLPNRLLVPLVPDLQDVAQLRSPLPRGIIRIHLLAARGLSSKDKYVKGLIEGKSDPYALVRLGTQTFCSRVIDEELNPQWGETYEVMVHEVPGQEIEVEVFDKDPDKDDFLGRMKLDVGKVLQASVLDDWFPLQGGQGQVHLRLEWLSLLSDAEKLEQVLQWNWGVSSRPDPPSAAILVVYLDRAQDLPLKKGNKEPNPMVQLSIQDVTQESKAVYSTNCPVWEEAFRFFLQDPQSQELDVQVKDDSRALTLGALTLPLARLLTAPELILDQWFQLSSSGPNSRLYMKLVMRILYLDSSEICFPTVPGCPGAWDVDSENPQRGSSVDAPPRPCHTTPDSQFGTEHVLRIHVLEAQDLIAKDRFLGGLVKGKSDPYVKLKLAGRSFRSHVVREDLNPRWNEVFEVIVTSVPGQELEVEVFDKDLDKDDFLGRCKVRLTTVLNSGFLDEWLTLEDVPSGRLHLRLERLTPRPTAAELEEVLQVNSLIQTQKSAELAAALLSIYMERAEDLPLRKGTKHLSPYATLTVGDSSHKTKTISQTSAPVWDESASFLIRKPHTESLELQVRGEGTGVLGSLSLPLSELLVADQLCLDRWFTLSSGQGQVLLRAQLGILVSQHSGVEAHSHSYSHSSSSLSEEPELSGGPPHITSSAPELRQRLTHVDSPLEAPAGPLGQVKLTLWYYSEERKLVSIVHGCRSLRQNGRDPPDPYVSLLLLPDKNRGTKRRTSQKKRTLSPEFNERFEWELPLDEAQRRKLDVSVKSNSSFMSRERELLGKVQLDLAETDLSQGVARWYDLMDNKDKGSS
B7: MFF (protein, UniProt Q9GZY8 1-342)
chain: MSKGTSSDTSLGRVSRAAFPSPTAAEMAEISRIQYEMEYTEGISQRMRVPEKLKVAPPNADLEQGFQEGVPNASVIMQVPERIVVAGNNEDVSFSRPADLDLIQSTPFKPLALKTPPRVLTLSERPLDFLDLERPPTTPQNEEIRAVGRLKRERSMSENAVRQNGQLVRNDSLWHRSDSAPRNKISRFQAPISAPEYTVTPSPQQARVCPPHMLPEDGANLSSARGILSLIQSSTRRAYQQILDVLDENRRPVLRGGSAAATSNPHHDNVRYGISNIDTTIEGTSDDLTVVDAASLRRQIIKLNRRLQLLEEENKERAKREMVMYSITVAFWLLNSWLWFRR

Molecular target: T1, SPTLC2^FLAG (WT-SPTLC2 with C-terminal 3xFLAG), in Flp-In T-REx 293 SPTLC2-KO cells (human)
Experiment: affinity purification with mass spectrometry; heavy membrane fractions of Flp-In T-REx 293 SPTLC2-KO cells with or without SPTLC2^FLAG, solubilised with digitonin (50 mM TRIS pH 7.4, 150 mM NaCl), anti-FLAG magnetic M2 beads 3 h, eluted with 100 mM glycine pH 2.5, mass spectrometry

Row | binding | Binder
1 | binds | B1
2 | binds | B2
3 | binds | B3
4 | binds | B4
5 | binds | B5
6 | binds | B6
7 | binds | B7
